Results from the supplement of paper PMC7024190.
Counter-ions that a name gives are not always drawn. Some of the results follow. This data set is noisy: repeats of one test often differ as much as different tests do.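 A first-round screen of about ten thousand compounds sought those raising reporter output, using human embryonic kidney cells briefly transfected with a plasmid carrying a Renilla luciferase gene driven by the HSV-TK promoter.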

Each compound was assayed on HEK 293FT (assay: log relative Renilla luciferase luminescence (reporter expression vs reference, reference not stated) (log (base not stated)); higher = higher recombinant reporter expression). Settings: 10 µM; time after transfection 48 h.

`CS(=O)(=O)c1ccc(C2=C(c3ccccc3)C(=O)OC2)cc1` [rofecoxib] and `O=c1cc(-c2ccccc2)oc2cccc(O)c12` [primuletin] are within 0.2 log units of each other in log: 0.0569 for the first, 0.0673 for the second.

Going from `Cn1c(=O)c2[nH]cnc2n(C)c1=O` [oxtriphylline] to `Cc1[nH]c(=O)c(C#N)cc1-c1ccncc1` [milrinone], the log falls from 0.111 to -1.4.

`Oc1ccc(Cl)c2c1CCC2` [chlorindanol] and `C[C@H]1COC2=C1C(=O)C(=O)c1c2ccc2c1CCCC2(C)C` [cryptotanshinone] are within 0.2 log units of each other in log: -0.0185 for the first, -0.0931 for the second.

First: COc1ccc2c(c1OC)OC[C@@H](c1ccc(OC)c(OC)c1OC)C2 [duartin, dimethyl ether]
Second: COc1ccc(Cc2cnc(N)nc2N)cc1OC [diaveridine]
The log of the first is higher: 0.134 for the first, -1.44 for the second.

First: C#C[C@]1(O)CC[C@H]2[C@@H]3CCc4cc(OC5CCCC5)ccc4[C@H]3CC[C@@]21C [quinestrol]
Second: CCC(CCC(C)C1CCC2C3CCC4CC(O)CCC4(C)C3CCC12C)C(C)C (centres undefined) [fucostanol]
The log of the first is lower: -0.121 for the first, 0.185 for the second.

`Cc1ccnc2c1NC(=O)c1cccnc1N2C1CC1` [nevirapine] and `CNc1ccccc1C(=O)N1CCc2c([nH]c3ccccc23)C1=O` [rhetsinine] are within 0.2 log units of each other in log: 0.0767 for the first, -0.0193 for the second.

First: CN(C)CCC=C1c2ccccc2CCc2ccccc21 [amitriptyline hydrochloride]
Second: S=C1SCN(Cc2ccccc2)CN1Cc1ccccc1 [sulbentine]
The log of the first is higher: -0.0177 for the first, -1.44 for the second.

`COC(=O)C[C@H]1C(C)(C)C(=O)[C@@H]2CC3=C(CC[C@]4(C)C3=CC(=O)O[C@H]4c3ccoc3)[C@@]1(C)C2=O` [carapin-8(9)-ene] and `CO/N=C(\C(=O)N[C@@H]1C(=O)N2C(C(=O)OC(C)OC(C)=O)=C(COC(N)=O)CS[C@H]12)c1ccco1` (some centres undefined) [cefuroxime axetil] are within 0.2 log units of each other in log: -0.047 for the first, -0.176 for the second.

Compared with `O=C(Nc1ccccc1)c1ccccc1O` [salicylanilide], `O=C(Nc1ccc(C(=O)O)c(O)c1)c1ccccc1` [benzoylpas] is higher in log: -1.61 for the first, 0.0848 for the second.

Compared with `NS(=O)(=O)c1cc2c(cc1Cl)N=CNS2(=O)=O` [chlorothiazide], `NS(=O)(=O)c1cc(C(=O)O)c(NCc2ccco2)cc1Cl` [furosemide] is higher in log: -0.0868 for the first, 0.151 for the second.

`CNS(=O)(=O)Cc1ccc2[nH]cc(CCN(C)C)c2c1` [sumatriptan succinate] and `COc1ccc2c(=O)c(CC(=O)O)coc2c1` [anhydrobrazilic acid] are within 0.2 log units of each other in log: -0.105 for the first, -0.0235 for the second.

First: CN[C@H](CC(C)C)C(=O)N[C@H]1C(=O)N[C@@H](CC(N)=O)C(=O)N[C@H]2C(=O)N[C@H]3C(=O)N[C@H](C(=O)N[C@H](C(=O)O)c4cc(O)cc(O)c4-c4cc3ccc4O)[C@H](O)c3ccc(c(Cl)c3)Oc3cc2cc(c3O[C@@H]2O[C@H](CO)[C@@H](O)[C@H](O)[C@H]2O[C@H]2C[C@](C)(N)[C@H](O)[C@H](C)O2)Oc2ccc(cc2Cl)[C@H]1O [vancomycin hydrochloride]
Second: CC[C@H]1OC(=O)[C@H](C)[C@@H](O[C@H]2C[C@@](C)(OC)[C@@H](O)[C@H](C)O2)[C@H](C)[C@@H](O[C@@H]2O[C@H](C)C[C@H](N(C)C)[C@H]2O)[C@](C)(OC)C[C@@H](C)C(=O)[C@H](C)[C@@H](O)[C@]1(C)O [clarithromycin]
The log of the first is lower: -0.0398 for the first, 0.174 for the second.

`O=C(CCCl)NCc1ccccc1` [beclamide] and `O=C(O)c1cc(=O)c2ccccc2o1` [chromocarb] are within 0.2 log units of each other in log: -0.0346 for the first, 0.0409 for the second.

`NC(=O)c1ncn([C@@H]2O[C@H](CO)[C@@H](O)[C@H]2O)n1` [ribavirin] and `Nc1ccn([C@@H]2CS[C@H](CO)O2)c(=O)n1` [lamivudine] are within 0.2 log units of each other in log: -0.0137 for the first, 0.0881 for the second.

`C#CCCCCCCCCCCCC(O)CC(O)CO.C=CCCCCCCCCCCCC(O)CC(O)CO` (centres undefined) [avocatin b] and `C=CCCCCCCCCC(=O)[O-].C=CCCCCCCCCC(=O)[O-].[Zn+2]` [zinc undecylenate] are within 0.2 log units of each other in log: 0.0168 for the first, 0.16 for the second.

`CCOC(=O)[C@H](CCc1ccccc1)N[C@@H](C)C(=O)N1[C@H](C(=O)O)C[C@@H]2CCC[C@@H]21` [ramipril] and `CC(C)COCC(CN(Cc1ccccc1)c1ccccc1)N1CCCC1` (centres undefined) [bepridil hydrochloride] are within 0.2 log units of each other in log: 0.0773 for the first, 0.127 for the second.

`CC1=CC2C(C(C)C)CCC(C)(O)C2CC1` (centres undefined) [cadin-4-en-10-ol] and `CC1(C)CC2C1CCC1(C)OC2(C)CCC1O` (centres undefined) [3,7-epoxycaryophyllan-6-ol] are within 0.2 log units of each other in log: -0.0238 for the first, 0.025 for the second.

`COc1ccc2oc(-c3ccccc3)c(OC)c(=O)c2c1` [3,6-dimethoxyflavone] and `COc1ccc2ccc(=O)oc2c1` [herniarin] are within 0.2 log units of each other in log: -0.0136 for the first, -0.0238 for the second.

Going from `Cc1cc(C2CCCCC2)n(O)c(=O)c1` [ciclopirox olamine] to `NC(=O)[C@@H]1CCCN1C(=O)[C@H](Cc1c[nH]cn1)NC(=O)[C@@H]1CCC(=O)N1` [protirelin], the log rises from -0.919 to 0.0956.

First: CCOc1ccc(C(=O)c2ccc(OC)c(O)c2O)cc1 [2,3-dihydroxy-4-methoxy-4'-ethoxybenzophenone]
Second: CCCCOC(=O)c1ccc(N)cc1 [butamben]
The log of the first is higher: 0.196 for the first, -0.174 for the second.

`N=C(N)NC(=O)c1nc(Cl)c(N)nc1N` [amiloride hydrochloride] and `COC(=O)Nc1nc2cc([S+]([O-])c3ccccc3)ccc2[nH]1` (centres undefined) [oxfendazole] are within 0.2 log units of each other in log: -0.0675 for the first, 0.131 for the second.

`CCCCC1=NC2(CCCC2)C(=O)N1Cc1ccc(-c2ccccc2-c2nnn[nH]2)cc1` [irbesartan] and `CN(C)CC(c1ccc(O)cc1)C1(O)CCCCC1` (centres undefined) [desvenlafaxine succinate] are within 0.2 log units of each other in log: -0.206 for the first, -0.0614 for the second.

`CCNC(=O)/C=C/c1cccc(Br)c1` [cinromide] and `COc1ccccc1OCC(O)COC(N)=O` (centres undefined) [methocarbamol] are within 0.2 log units of each other in log: -0.00497 for the first, -0.0916 for the second.

`Cc1cc(N)c2ccccc2[n+]1CCCCCCCCCC[n+]1c(C)cc(N)c2ccccc21` [dequalinium chloride] and `COc1c(N2CCNC(C)C2)c(F)cc2c(=O)c(C(=O)O)cn(C3CC3)c12` (centres undefined) [gatifloxacin] are within 0.2 log units of each other in log: -0.0366 for the first, 0.0698 for the second.

`N[C@@H](C(=O)O)[C@@H](O)[C@H](O)[C@H](O)CO` [glucosaminic acid] was tested, and the log was 0.0151.
